# Reference: patent US20120040896A1, “COMPOSITIONS, METHODS AND USES FOR MODULATION OF BRCA 1” (THE REGENTS OF THE UNIVERSITY OF COLORADO, priority 2008, published 2012)
# For at least one compound, name, drawing or mass did not settle the structure.
# Assays:
# Format in all cases: cell-based, human
# Akt = experiment: Immunoblot of phosphorylated Akt (pS473), Akt activation
# Description: (§1) MCF7 cells were obtained from the American Type Culture Collection (#HTB-22). T47D cells were provided by Baylor College of Medicine. Both lines were normally maintained at 37° C. with 5% CO2 in DMEM with 1 mM L-glutamine (Gibco) supplemented with 10% Fetalclone serum (HyClone) and 1% non-essential amino acids (Gibco). For steroid depleted conditions (denoted as CSS), cells were cultured in phenol-free DMEM with 1 mM L-glutamine and 25 mM HEPES supplemented with 10% charcoal/dextran treated fetal bovine serum (Gemini Bioproducts). 17-β-estradiol and MG132 were obtained from Sigma-Aldrich. Cycloheximide, U0126, and p38 inhibitor were obtained from Calbiochem. ICI 182780 was obtained from Tocris Biosciences. LY294002 was obtained from Cell Signaling Technology.
# (§2) Whole cell lysates were prepared by washing cells twice with PBS and then scraping into ice-cold PBS. Pelleted cells were resuspended in modified RIPA buffer (50 mM Tris base, 150 mM NaCl, 2 mM EDTA, 1% Triton X-100, 0.5% Na-deoxycholate, 0.1% SDS, 50 mM NaF, 5 mM Na3VO4, plus Roche protease inhibitor tablets). Lysates were incubated for 30 minutes on ice, clarified by centrifugation, and protein concentration determined by Bradford assay (BioRad). […] Densitometry was performed on 600 dpi TIFF scans of Western blot films with Quantity One software (BioRad). […]
# BRCA1 = experiment: Immunoblot of BRCA1 protein levels in breast carcinoma cells
# Description: as §1, §2
# BARD1 = experiment: Immunoblot of BARD1 protein levels in breast carcinoma cells
# Description: as §1, §2
# phospho-Akt substrate = experiment: Immunoblot with phospho-(Ser/Thr) Akt substrate (PAS) antibody; details: MCF7, normal fetal bovine serum, varying doses
# [1] = MCF7, normal fetal bovine serum, varying doses
# [2] = MCF7, steroid depleted, pretreatment before E2
structure (smiles),measurement,setting,value
O=c1cc(N2CCOCC2)oc2c(-c3ccccc3)cccc12 [LY294002],Akt activation (pAkt immunoblot),Akt; [1],inhibited
same,blockade of Akt activation (pS473-Akt signal) after E2 stimulation,Akt; [2],lack of pS473-Akt signal
same,BRCA1 protein (monoclonal antibody immunoblot),BRCA1; [1],similarly decreased in a LY294002 dose dependent manner
same,effect of pretreatment on E2-induced accumulation of BRCA1 protein,BRCA1; [2],completely blocked
same,total BARD1 protein levels,BARD1; [1],decrease in a dose responsive manner
same,effect of pretreatment on E2-induced accumulation of BARD1 protein,BARD1; [2],completely blocked
same,immunoreactive phospho-Akt substrate (PAS antibody),phospho-Akt substrate,decreased in a dose dependent manner
